Experimental findings from publication PMC3573893 are described below.

Sequences of proteins named here, by UniProt entry; tags and fusion partners are left off. A change or cut given only in a name is not applied to a line headed by its entry. Residues count along the entry.
UniProt P49582, residues 23-502: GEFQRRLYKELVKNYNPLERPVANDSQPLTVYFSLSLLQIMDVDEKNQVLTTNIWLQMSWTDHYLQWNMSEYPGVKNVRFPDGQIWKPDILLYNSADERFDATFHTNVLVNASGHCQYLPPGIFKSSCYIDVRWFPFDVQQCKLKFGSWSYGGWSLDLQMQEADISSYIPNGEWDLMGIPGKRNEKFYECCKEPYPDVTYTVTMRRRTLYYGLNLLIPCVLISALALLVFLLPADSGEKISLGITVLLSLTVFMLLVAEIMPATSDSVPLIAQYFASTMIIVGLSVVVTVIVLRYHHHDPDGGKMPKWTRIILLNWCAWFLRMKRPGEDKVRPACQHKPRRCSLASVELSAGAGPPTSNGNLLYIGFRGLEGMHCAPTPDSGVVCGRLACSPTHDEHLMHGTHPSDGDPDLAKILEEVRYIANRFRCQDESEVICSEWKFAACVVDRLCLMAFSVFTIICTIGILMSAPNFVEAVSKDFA
UniProt Q9ERK7: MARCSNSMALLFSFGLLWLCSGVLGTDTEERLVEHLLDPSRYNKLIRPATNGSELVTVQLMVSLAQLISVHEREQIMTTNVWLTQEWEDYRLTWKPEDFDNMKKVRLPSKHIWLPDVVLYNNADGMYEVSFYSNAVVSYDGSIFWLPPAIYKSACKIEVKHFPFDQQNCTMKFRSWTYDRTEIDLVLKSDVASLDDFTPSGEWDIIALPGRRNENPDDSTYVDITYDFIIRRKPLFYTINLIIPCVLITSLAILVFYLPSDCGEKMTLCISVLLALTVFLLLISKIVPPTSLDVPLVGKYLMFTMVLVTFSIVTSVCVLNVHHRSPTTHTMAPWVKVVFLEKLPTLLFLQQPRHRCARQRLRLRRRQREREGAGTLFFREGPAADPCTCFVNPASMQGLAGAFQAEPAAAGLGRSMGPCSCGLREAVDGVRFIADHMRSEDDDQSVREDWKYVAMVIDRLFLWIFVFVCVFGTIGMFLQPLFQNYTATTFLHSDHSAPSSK

This experiment deals with nicotinic acetylcholine receptor α7 subunit (mouse (endogenous in hippocampus and VDB tissue)) (UniProt P49582). The experiment in a line: co-IP; detergent extracts (1% Triton X-100 lysis buffer) of wild type mouse hippocampus CA1 or VDB; IP with rabbit anti-α7 antiserum H302 at 4°C overnight, protein A/G-Sepharose; immunoblot with rat anti-β2 mAb270; β2 knockout hippocampus as control. In general terms: A western blot detects proteins with antibodies after separation by electrophoresis.

These are yes or no findings as the source states them, for the method shown. Binding seen in cells or lysates may run through a third protein. Some results given as binding are weak or reduced against the parent protein; the word gives no strength.

Consider “nicotinic acetylcholine receptor β2 subunit (from UniProt Q9ERK7 26-501)”, for which the binding result is “binds”.
